# doi:10.1101/2021.10.12.464076
# Amino acid sequences for entries named in this document (tags omitted).
# UniProt Q8IY92: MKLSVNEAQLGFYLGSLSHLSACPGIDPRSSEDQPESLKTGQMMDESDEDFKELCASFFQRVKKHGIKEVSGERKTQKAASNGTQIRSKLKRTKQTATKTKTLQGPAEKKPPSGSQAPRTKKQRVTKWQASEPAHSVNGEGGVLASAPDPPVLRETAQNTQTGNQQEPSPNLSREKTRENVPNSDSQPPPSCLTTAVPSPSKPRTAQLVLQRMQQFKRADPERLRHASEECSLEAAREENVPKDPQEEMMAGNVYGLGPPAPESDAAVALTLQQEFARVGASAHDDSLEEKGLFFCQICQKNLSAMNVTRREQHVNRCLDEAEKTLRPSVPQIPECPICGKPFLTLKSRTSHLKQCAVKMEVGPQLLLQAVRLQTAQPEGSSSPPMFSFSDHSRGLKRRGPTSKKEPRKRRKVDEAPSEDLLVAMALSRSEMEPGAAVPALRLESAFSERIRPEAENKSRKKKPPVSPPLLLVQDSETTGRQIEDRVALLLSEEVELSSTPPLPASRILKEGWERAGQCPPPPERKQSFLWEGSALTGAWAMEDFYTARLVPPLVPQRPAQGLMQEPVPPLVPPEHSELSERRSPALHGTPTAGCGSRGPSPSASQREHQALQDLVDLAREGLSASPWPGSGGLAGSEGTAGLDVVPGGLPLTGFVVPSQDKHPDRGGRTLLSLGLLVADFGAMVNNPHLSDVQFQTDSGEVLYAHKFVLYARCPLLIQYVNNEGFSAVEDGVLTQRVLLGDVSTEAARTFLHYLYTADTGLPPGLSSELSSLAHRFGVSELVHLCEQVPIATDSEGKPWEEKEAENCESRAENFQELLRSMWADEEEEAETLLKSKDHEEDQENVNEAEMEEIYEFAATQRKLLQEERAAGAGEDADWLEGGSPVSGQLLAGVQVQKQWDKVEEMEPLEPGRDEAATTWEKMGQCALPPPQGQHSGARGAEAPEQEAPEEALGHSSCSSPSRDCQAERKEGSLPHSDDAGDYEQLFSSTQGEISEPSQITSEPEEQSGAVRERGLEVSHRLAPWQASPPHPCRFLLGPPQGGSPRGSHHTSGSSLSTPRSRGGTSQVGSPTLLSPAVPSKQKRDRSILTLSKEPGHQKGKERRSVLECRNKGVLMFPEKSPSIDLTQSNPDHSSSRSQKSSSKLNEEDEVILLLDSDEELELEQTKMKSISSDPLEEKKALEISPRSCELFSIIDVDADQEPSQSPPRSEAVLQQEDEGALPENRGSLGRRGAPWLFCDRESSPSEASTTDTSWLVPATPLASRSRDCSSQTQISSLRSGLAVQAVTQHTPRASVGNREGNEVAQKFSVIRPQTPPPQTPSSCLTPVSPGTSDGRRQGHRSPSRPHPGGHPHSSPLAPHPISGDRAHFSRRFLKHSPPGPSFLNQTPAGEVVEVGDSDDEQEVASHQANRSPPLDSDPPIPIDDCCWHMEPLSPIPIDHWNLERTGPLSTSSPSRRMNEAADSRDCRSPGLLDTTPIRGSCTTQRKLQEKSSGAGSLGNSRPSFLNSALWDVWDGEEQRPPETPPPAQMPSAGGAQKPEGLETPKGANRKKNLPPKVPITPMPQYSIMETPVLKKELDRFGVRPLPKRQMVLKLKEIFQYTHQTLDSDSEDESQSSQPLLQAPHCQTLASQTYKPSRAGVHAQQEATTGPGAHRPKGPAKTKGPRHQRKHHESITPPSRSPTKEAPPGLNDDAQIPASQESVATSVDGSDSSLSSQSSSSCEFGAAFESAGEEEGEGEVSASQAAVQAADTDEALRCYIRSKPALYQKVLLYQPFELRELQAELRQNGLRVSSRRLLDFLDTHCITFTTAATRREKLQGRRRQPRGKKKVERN
# UniProt P52701: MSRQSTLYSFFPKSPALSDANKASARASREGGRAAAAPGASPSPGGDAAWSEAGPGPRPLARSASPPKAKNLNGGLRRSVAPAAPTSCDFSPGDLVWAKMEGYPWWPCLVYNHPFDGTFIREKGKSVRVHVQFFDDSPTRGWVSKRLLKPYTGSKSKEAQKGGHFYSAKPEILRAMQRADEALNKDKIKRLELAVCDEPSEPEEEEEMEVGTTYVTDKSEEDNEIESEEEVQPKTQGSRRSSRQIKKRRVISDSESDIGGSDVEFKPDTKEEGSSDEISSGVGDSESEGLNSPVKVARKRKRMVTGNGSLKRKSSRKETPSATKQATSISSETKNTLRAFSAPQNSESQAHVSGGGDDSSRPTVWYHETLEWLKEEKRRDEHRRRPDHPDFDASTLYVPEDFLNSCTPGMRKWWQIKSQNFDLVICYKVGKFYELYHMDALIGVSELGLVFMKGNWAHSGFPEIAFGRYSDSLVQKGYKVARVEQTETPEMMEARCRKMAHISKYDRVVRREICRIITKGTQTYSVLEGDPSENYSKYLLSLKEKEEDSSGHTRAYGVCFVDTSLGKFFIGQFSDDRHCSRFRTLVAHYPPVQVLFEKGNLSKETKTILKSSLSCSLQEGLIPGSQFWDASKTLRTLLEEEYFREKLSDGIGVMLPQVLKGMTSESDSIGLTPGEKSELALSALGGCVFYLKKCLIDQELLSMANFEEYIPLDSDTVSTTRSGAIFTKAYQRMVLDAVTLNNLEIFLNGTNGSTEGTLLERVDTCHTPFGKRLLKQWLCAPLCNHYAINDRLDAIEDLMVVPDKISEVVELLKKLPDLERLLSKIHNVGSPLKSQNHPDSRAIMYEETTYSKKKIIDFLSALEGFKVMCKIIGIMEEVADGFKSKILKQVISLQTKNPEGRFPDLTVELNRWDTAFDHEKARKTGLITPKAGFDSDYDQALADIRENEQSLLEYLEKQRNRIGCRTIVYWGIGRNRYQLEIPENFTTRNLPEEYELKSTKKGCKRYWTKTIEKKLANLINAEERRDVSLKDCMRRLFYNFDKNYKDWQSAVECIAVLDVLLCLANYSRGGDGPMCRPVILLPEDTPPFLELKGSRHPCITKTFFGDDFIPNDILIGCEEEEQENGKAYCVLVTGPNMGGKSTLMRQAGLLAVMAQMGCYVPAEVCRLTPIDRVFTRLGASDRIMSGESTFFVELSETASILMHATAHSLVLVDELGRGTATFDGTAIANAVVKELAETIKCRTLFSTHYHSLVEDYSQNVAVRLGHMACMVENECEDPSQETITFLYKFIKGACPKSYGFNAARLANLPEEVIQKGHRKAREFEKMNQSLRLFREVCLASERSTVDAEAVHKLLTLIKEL
# Results are given in words; binding and its absence hold for the method and conditions named. In cells and extracts the contact can be indirect. These calls come from enrichment with a bait or labelling near it, and not all partners need be listed.
# Target: endogenous SLX4 (human (endogenous in HeLa)) (UniProt Q8IY92)
# Assay: affinity purification with mass spectrometry
substance,measurement,value
endogenous MSH6 (from UniProt P52701 1-1360),binding,binds
